From US20110251085A1, “IN VITRO METHOD TO DETERMINE WHETHER A DRUG CANDIDATE ACTIVE AGAINST A TARGET PROTEIN IS ACTIVE AGAINST A VARIANT OF SAID PROTEIN” (VIVALIS, priority 2008, published 2011)
For at least one compound, name, drawing or mass did not settle the structure.

Amino acid sequences for entries named in this document (tags omitted). Residues count along the entry.
UniProt P26662, 2420-2989 L2476M/R2673K/V2681I/A2754S/A2757V/K2950R: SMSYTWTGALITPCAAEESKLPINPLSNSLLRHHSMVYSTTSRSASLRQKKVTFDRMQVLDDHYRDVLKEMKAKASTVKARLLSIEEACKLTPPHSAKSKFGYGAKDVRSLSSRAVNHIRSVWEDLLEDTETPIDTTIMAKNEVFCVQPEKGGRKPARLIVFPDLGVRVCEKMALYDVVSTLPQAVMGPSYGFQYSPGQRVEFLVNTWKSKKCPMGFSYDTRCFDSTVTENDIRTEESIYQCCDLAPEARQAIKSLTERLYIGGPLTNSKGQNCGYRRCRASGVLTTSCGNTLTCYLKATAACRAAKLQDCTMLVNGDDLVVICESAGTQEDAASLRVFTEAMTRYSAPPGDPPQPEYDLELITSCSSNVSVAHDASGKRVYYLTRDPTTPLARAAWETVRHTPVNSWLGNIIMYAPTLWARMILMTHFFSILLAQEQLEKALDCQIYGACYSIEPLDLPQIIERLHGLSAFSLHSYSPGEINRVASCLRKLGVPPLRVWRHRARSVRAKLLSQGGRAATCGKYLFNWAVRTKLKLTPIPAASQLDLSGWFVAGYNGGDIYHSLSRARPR

Columns and labels:
NS5BΔ21 = target: T1, NS5BΔ21 (Hepatitis C virus genotype 1b, UniProt P26662); assay type: cell-based, HCV genotype 1b; conditions: selective medium lacking histidine, leucine and tryptophane, supplemented with ligand, X-Gal overlay
T1 construct: lexA/truncated HCV polymerase lacking the C-terminal 21 amino-acids fusion protein as a bait; expressed in transfected cells; host or cells: Saccharomyces cerevisiae L40, plasmid pVVS468

ER = experiment: Yeast two-hybrid spot test, control clone ER + 3D-sensor No 30-2; assay type: cell-based
Description: (a) Isolation of peptides interacting with the NS5BΔ21 in the yeast two-hybrid-system. Yeast cells carrying the bait (NS5BΔ21-LexA) were transformed with the prey represented by a library of random peptides (in frame with the viral VP16 activation domain). Colonies growing on selective medium and staining blue allowed the isolation of individual peptides that would specifically interact with the polymerase. (b) Isolation of conformation sensitive peptides. The interacting peptides were then tested in presence of ligands known to induce conformational changes in the bait NS5B. The “3D-sensors” were thus identified as the ones whose binding to the target polymerase was prevented by known anti-NS5B. The corresponding colonies didn't show any expression of the selection or reporter gene. (c) Characterization of NS5BΔ21 “3D-sensors” in a spot test. Here were represented 2 selected yeast colonies: one carrying the ER and its specific peptide called No 30-2 isolated previously and used as a control, the other carrying the NS5BΔ21 and its specific peptide called N21C272. Both clones were spotted on selective medium lacking histidine, leucine and tryptophane, supplemented or not with polymerase ligands and overlayed with an X-Gal staining The NS5BΔ21+N21C272 clone grew on selective medium in the absence of any NS5B ligand and stained positive for LacZ. […]

C[C@]12CC[C@@H]3c4ccc(O)cc4CC[C@H]3[C@@H]1CC[C@@H]2O [Estradiol]
growth on selective medium and LacZ staining of the NS5BΔ21+N21C272 yeast clone (NS5BΔ21): didn't show any effect
sensitivity of the control clone (ER + 3D sensor No 30.2 interaction) to ligand (ER): sensitive
